Measurements published in article PMC8517208.
No constants are given. Whether binding was seen depends on the method and setting. Binding seen in cells or lysates may run through a third protein. A yes stands for co-enrichment or nearness to the bait. Other partners may have been found. Tags and fused reporters may be left off the sequences shown.

T1: murine EpCAM in fusion with yellow fluorescent protein (YFP) at the C-terminus, in mF9 cells (murine) (UniProt Q99JW5)
T1 sequence: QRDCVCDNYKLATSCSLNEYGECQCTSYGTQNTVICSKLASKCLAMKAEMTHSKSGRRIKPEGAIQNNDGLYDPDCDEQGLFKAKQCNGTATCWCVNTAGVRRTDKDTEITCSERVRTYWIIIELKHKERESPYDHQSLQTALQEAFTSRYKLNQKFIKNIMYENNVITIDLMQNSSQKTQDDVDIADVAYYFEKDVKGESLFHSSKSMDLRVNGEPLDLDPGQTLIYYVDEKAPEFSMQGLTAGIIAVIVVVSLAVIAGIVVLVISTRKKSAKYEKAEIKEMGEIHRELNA


Molecular target: T1, murine EpCAM in fusion with yellow fluorescent protein (YFP) at the C-terminus, in mF9 cells (murine)
Test: affinity purification with mass spectrometry; SILAC: whole cell lysates of mF9 cells stably expressing EpCAM-YFP (heavy, Lys-8/Arg-10) or YFP (light); 3 or 7 mg lysate with 30 μL GFP-Trap agarose beads, 3 hrs, 4°C; washed in 0.2% tween in PBS; LC-MS/MS; three biological repeats; hits: enriched >3-fold over YFP, p ≤ 0.05, at least 2 unique peptides

| Binder | binding |
| --- | --- |
| NADPH-cytochrome p450 reductase (protein, UniProt P37040 1-678) MGDSHEDTSATVPEAVAEEVSLFSTTDIVLFSLIVGVLTYWFIFKKKKEEIPEFSKIQTTAPPVKESSFVEKMKKTGRNIIVFYGSQTGTAEEFANRLSKDAHRYGMRGMSADPEEYDLADLSSLPEIDKSLVVFCMATYGEGDPTDNAQDFYDWLQETDVDLTGVKFAVFGLGNKTYEHFNAMGKYVDQRLEQLGAQRIFELGLGDDDGNLEEDFITWREQFWPAVCEFFGVEATGEESSIRQYELVVHEDMDTAKVYTGEMGRLKSYENQKPPFDAKNPFLAAVTTNRKLNQGTERHLMHLELDISDSKIRYESGDHVAVYPANDSTLVNQIGEILGADLDVIMSLNNLDEESNKKHPFPCPTTYRTALTYYLDITNPPRTNVLYELAQYASEPSEQEHLHKMASSSGEGKELYLSWVVEARRHILAILQDYPSLRPPIDHLCELLPRLQARYYSIASSSKVHPNSVHICAVAVEYEAKSGRVNKGVATSWLRTKEPAGENGRRALVPMFVRKSQFRLPFKPTTPVIMVGPGTGVAPFMGFIQERAWLREQGKEVGETLLYYGCRRSDEDYLYREELARFHKDGALTQLNVAFSREQAHKVYVQHLLKRDKEHLWKLIHEGGAHIYVCGDARNMAKDVQNTFYDIVAEFGPMEHTQAVDYVKKLMTKGRYSLDVWS | binds |
| ATP synthase subunit f (protein, UniProt P56135 1-88) MASLVPLKEKKLMEVKLGELPSWIMMRDFTPSGIAGAFRRGYDRYYNKYINVRKGSISGISMVLAAYVVFSYCISYKELKHERRRKYH | binds |
| Interferon-induced transmembrane protein 2 (protein, UniProt Q99J93 1-144) MSHNSQAFLSTNAGLPPSYETIKEEYGVTELGEPSNSAVVRTTVINMPREVSVPDHVVWSLFNTLFFNACCLGFVAYAYSVKSRDRKMVGDVVGAQAYASTAKCLNISSLIFSILMVIICIIIFSTTSVVVFQSFAQRTPHSGF | binds |
| ER membrane protein complex subunit 2 (Emc2) (protein, UniProt Q9CRD2 1-297) MAKVTERYDVTWEEMRDKMRKWREENSRNSEQIMEVGEELINDYASKLGDDIWIIYEQVMIAALDYGRDDLALFCLQELRRQFPGSHRVKRLTGMRFEAMERYDDAIQLYDRILQEDPTNTAARKRKIAIRKAQGKTVEAIRELNEYLEQFVGDQEAWHELAELYINEHDYAKAAFCLEELMMTNPHNHLYCQQYAEVKYTQGGLENLELSRKYFAQALKLNNRNMRALFGLYMSASHIASNPKASAKMKKDNIKYASWAANQINRAYQFAGRSKKETKYSLKAVEDMLETLQITQS | binds |
| Exportin-5 (protein, UniProt Q924C1-1 1-1204) MEMEQVNALCEELVKAVTVMMDPSSTQRYRLEALKFCEEFKEKCPICVPCGLKLAEKTQIAIVRHFGLQILEHVVKFRWNSMSRLEKVYLKNSVMELIANGTLRILEEENHIKDVLSRIVVEMIKREWPQHWPDMLMELDTLFRQGETQRELVMFILLRLAEDVVTFQTLPTQRRRDIQQTLTQNMERILNFLLNTLQENVNKYQQMKTDSSQEAEAQANCRVSVAALNTLAGYIDWVSLNHITAENCKLVETLCLLLNEQELQLGAAECLLIAVSRKGKLEDRKRLMILFGDVAMHYILSAAQTADGGGLVEKHYLFLKRLCQVLCALGNLLCALLALDANIQTPINFGMYLESFLAFTTHPSQFLRSSTHMTWGALFRHEVLSRDPALLAVIPKYLRASMTNLVKMGFPSKTDSPSCEYSRFDFDSDEDFNAFFNSSRAQHGEVVRCVCRLDPKTSFQMAAEWLKYQLSASIDTGPVNSCSTAGTGEGGFCSIFSPSYVQWEAMTFFLESVINQMFRTLDKEELPVSDGIELLQLVLNFEIKDPLVLSCVLTNVSALFPFVTYKPAFLPQVFSKLFSFVTFESVGESKAPRTRAVRNVRRHACSSINKMCRDYPDLVLPNFDMLYSHVKQLLSNELLLTQMEKCALMEALVLVSNQFKDYERQKLFLEELMAPVVNIWLSEEMCRALSDIDSFIAYVGADLKSCDPAVEDPCGLNRARMSFCVYSILGVMRRTSWPSDLEEAKAGGFVVGYTPSGNPIFRNPCTEQILRLLDNLLALVRTHNTLYTPEMLTKMAEPFTKALDIVESEKTAILGLPQPLLEFNDHPVYRTTLERMQRFFGILYENCYHILGKAGPSMQQDFYTVEDLASQLLGSAFVNLNNIPDFRLRSMLRVFVKPLVLFCPSEHYETLISPILGPLFTYLHMRLSQKWHVINQRSILCGEDEIAEDNPESQEMLEEQLVRMLTREAMDLIMACCVSKKTADHTAAPTADGDDEEMMATEVAPSSVVELTDLGKCLMKHEDVCTALLITAFNSLTWKDTLSCQRATTQLCWPLLKQVMSGTLLADAVTWLFTSVLKGLQMHGQHDGCMASLVHLAFQIYEALRPRYLEIRAVMEQIPEINKESLDQFDCKLLNPSLQKAADKRRKDHFKRLIAGCIGKPLGEQFRKEVHIKNLPWLFKKPKPMLETEVLDSEEGGLATIFEP | binds |
| ATP synthase, H+ transporting, mitochondrial F1 complex, delta subunit, isoform CRA_c (protein, UniProt Q9D3D9 23-168) AEAAAAPAPAAGPGQMSFTFASPTQVFFDSANVKQVDVPTLTGAFGILASHVPTLQVLRPGLVVVHTEDGTTTKYFVSSGSVTVNADSSVQLLAEEAVTLDMLDLGAARANLEKAQSELSGAADEAARAEIQIRIEANEALVKALE | binds |
| Ras-related protein Rab-5c (protein, UniProt P35278 1-216) MAGRGGAARPNGPAAGNKICQFKLVLLGESAVGKSSLVLRFVKGQFHEYQESTIGAAFLTQTVCLDDTTVKFEIWDTAGQERYHSLAPMYYRGAQAAIVVYDITNTDTFARAKNWVKELQRQASPNIVIALAGNKADLASKRAVEFQEAQAYADDNSLLFMETSAKTAMNVNEIFMAIAKKLPKNEPQNAAGAPGRTRGVDLQESNPASRSQCCSN | binds |
| Calnexin (protein, UniProt P35564 21-591) HDGHDDDAIDIEDDLDDVIEEVEDSKSKSDASTPPSPKVTYKAPVPTGEVYFADSFDRGSLSGWILSKAKKDDTDDEIAKYDGKWEVDEMKETKLPGDKGLVLMSRAKHHAISAKLNKPFLFDTKPLIVQYEVNFQNGIECGGAYVKLLSKTAELSLDQFHDKTPYTIMFGPDKCGEDYKLHFIFRHKNPKTGVYEEKHAKRPDADLKTYFTDKKTHLYTLILNPDNSFEILVDQSVVNSGNLLNDMTPPVNPSREIEDPEDRKPEDWDERPKIADPDAVKPDDWDEDAPSKIPDEEATKPEGWLDDEPEYIPDPDAEKPEDWDEDMDGEWEAPQIANPKCESAPGCGVWQRPMIDNPNYKGKWKPPMIDNPNYQGIWKPRKIPNPDFFEDLEPFKMTPFSAIGLELWSMTSDIFFDNFIISGDRRVVDDWANDGWGLKKAADGAAEPGVVLQMLEAAEERPWLWVVYILTVALPVFLVILFCCSGKKQSNAMEYKKTDAPQPDVKDEEGKEEEKNKRDEEEEEEKLEEKQKSDAEEDGVTGSQDEEDSKPKAEEDEILNRSPRNRKPRRE | binds |
| Solute carrier family 2, facilitated glucose transporter member 1 (protein, UniProt P17809 1-492) MDPSSKKVTGRLMLAVGGAVLGSLQFGYNTGVINAPQKVIEEFYNQTWNHRYGEPIPSTTLTTLWSLSVAIFSVGGMIGSFSVGLFVNRFGRRNSMLMMNLLAFVAAVLMGFSKLGKSFEMLILGRFIIGVYCGLTTGFVPMYVGEVSPTALRGALGTLHQLGIVVGILIAQVFGLDSIMGNADLWPLLLSVIFIPALLQCILLPFCPESPRFLLINRNEENRAKSVLKKLRGTADVTRDLQEMKEEGRQMMREKKVTILELFRSPAYRQPILIAVVLQLSQQLSGINAVFYYSTSIFEKAGVQQPVYATIGSGIVNTAFTVVSLFVVERAGRRTLHLIGLAGMAGCAVLMTIALALLERLPWMSYLSIVAIFGFVAFFEVGPGPIPWFIVAELFSQGPRPAAIAVAGFSNWTSNFIVGMCFQYVEQLCGPYVFIIFTVLLVLFFIFTYFKVPETKGRTFDEIASGFRQGGASQSDKTPEELFHPLGADSQV | binds |
| CDGSH iron-sulfur domain-containing protein 2 (protein, UniProt Q9CQB5 1-135) MVLDSVARIVKVQLPAYLKQLPVPDSITGFARLTVSDWLRLLPFLGVLALLGYLAVRPFFPKKKQQKDSLINLKIQKENPKVVNEINIEDLCLTKAAYCRCWRSKTFPACDGSHNKHNELTGDNVGPLILKKKEV | binds |
| Catenin delta-1 (protein, UniProt P30999 1-938) MDDSEVESTASILASVKEQEAQFEKLTRALEEERRHVSAQLERVRVSPQDANSLMANGTLTRRHQNGRFVGDADLERQKFSDLKLNGPQDHNHLLYSTIPRMQEPGQIVETYTEEDPEGAMSVVSVETTDDGTTRRTETTVKKVVKTMTTRTVQPVPMGPDGLPVDASAVSNNYIQTLGRDFRKNGNGGPGPYVGQAGTATLPRNFHYPPDGYGRHYEDGYPGGSDNYGSLSRVTRIEERYRPSMEGYRAPSRQDVYGPQPQVRVGGSSVDLHRFHPEPYGLEDDQRSMGYDDLDYGMMSDYGTARRTGTPSDPRRRLRSYEDMIGEEVPPDQYYWAPLAQHERGSLASLDSLRKGMPPPSNWRQPELPEVIAMLGFRLDAVKSNAAAYLQHLCYRNDKVKTDVRKLKGIPILVGLLDHPKKEVHLGACGALKNISFGRDQDNKIAIKNCDGVPALVRLLRKARDMDLTEVITGTLWNLSSHDSIKMEIVDHALHALTDEVIIPHSGWEREPNEDCKPRHIEWESVLTNTAGCLRNVSSERSEARRKLRECDGLVDALIFIVQAEIGQKDSDSKLVENCVCLLRNLSYQVHREIPQAERYQEALPTVANSTGPHAASCFGAKKGKDEWFSRGKKPTEDPANDTVDFPKRTSPARGYELLFQPEVVRIYISLLKESKTPAILEASAGAIQNLCAGRWTYGRYIRSALRQEKALSAIAELLTSEHERVVKAASGALRNLAVDARNKELIGKHAIPNLVKNLPGGQQNSSWNFSEDTVVSILNTINEVIAENLEAAKKLRETQGIEKLVLINKSGNRSEKEVRAAALVLQTIWGYKELRKPLEKEGWKKSDFQVNLNNASRSQSSHSYDDSTLPLIDRNQKSDKKPDREEIPMSNMGSNTKSLDNNYSTLNERGDHNRTLDRSGDLGDMEPLKGAPLMQKI | binds |
| Ras-related protein Ral-a (protein, UniProt P63321 1-206) MAANKPKGQNSLALHKVIMVGSGGVGKSALTLQFMYDEFVEDYEPTKADSYRKKVVLDGEEVQIDILDTAGQEDYAAIRDNYFRSGEGFLCVFSITEMESFAATADFREQILRVKEDENVPFLLVGNKSDLEDKRQVSVEEAKNRADQWNVNYVETSAKTRANVDKVFFDLMREIRARKMEDSKEKNGKKKRKSLAKRIRERCCIL | binds |
| Ras-related protein Rab-5a (protein, UniProt Q9CQD1 1-215) MANRGATRPNGPNTGNKICQFKLVLLGESAVGKSSLVLRFVKGQFHEFQESTIGAAFLTQTVCLDDTTVKFEIWDTAGQERYHSLAPMYYRGAQAAIVVYDITNEESFARAKNWVKELQRQASPNIVIALSGNKADLANKRAVDFQEAQSYADDNSLLFMETSAKTSMNVNEIFMAIAKKLPKNEPQNPGANSARGRGVDLTEPAQPARSQCCSN | binds |
